Data reported in the supplement of paper PMC5949888.
± gives the standard deviation of the averaged measurements. Most values lie at the floor of the assay. Slopes are relative: functional sequences can read slightly below zero.

These substances were tested on Saccharomyces cerevisiae PS128 hsf1 delta, HSF1(1-493) fusion (assay: growth estimate (transactivation domain function in HSF1 fusion, heat-shock survival) (a.u. (slope of normalised read count over time)); higher = stronger growth at 37°C, i.e. more transactivation activity). Conditions: library: random library.
In the case of LGSGSPGKATRQEIIVAPPR, the growth estimate is reported as < -0.25.
For HGLPASQDITS, the growth estimate was < -0.25.
VSSLVICR was tested, and the growth estimate was < -0.25.
In the case of GLMIMRSGRGTKRLERKSSC, the growth estimate is reported as < -0.25.
GPASR was tested, and the growth estimate was < -0.25.
With RSVGSSPT the growth estimate was < -0.25.
With FRGLSGIRPLTE the growth estimate was < -0.25.
For RSTVNIPR, the growth estimate was < -0.25.
In the case of GPTVNEWDSVNVCRLRARGS, the growth estimate is reported as < -0.25.
With FVNLNRRVPSSPCWPWFSGL the growth estimate was < -0.25.
In the case of PNW, the growth estimate is reported as < -0.25.
In the case of GVLTFRSEVLKIG, the growth estimate is reported as < -0.25.
With RDS the growth estimate was -0.243 ± 0.0099.
For TQIVLRLEPNHRRAACAVTG, the growth estimate was < -0.25.
GVSKVGNIPRIGARGFAAVS was tested, and the growth estimate was < -0.25.
In the case of VPGGGPIGPSEFNVKSTVPN, the growth estimate is reported as < -0.25.
For SSVRSPSVSDWILKVRDHLV, the growth estimate was < -0.25.
With FCGTYERSVQQTGGPKTGCR the growth estimate was < -0.25.
RPMLEQLVPGVNEISGNCPP was tested, and the growth estimate was < -0.25.
For RVGRRVQ, the growth estimate was < -0.25.
For YLGVPSSSYWATRWPRTRFP, the growth estimate was < -0.25.
For FPGLVTCNNRDAALLNARAG, the growth estimate was < -0.25.
For SRLTHGDDCCAIYVRS, the growth estimate was < -0.25.
In the case of IRCA, the growth estimate is reported as < -0.25.
KTMQRGQSGILGPARR was tested, and the growth estimate was < -0.25.
EST was tested, and the growth estimate was < -0.25.
RSCRTIGTRRALCARLSDRA was tested, and the growth estimate was < -0.25.
In the case of QVTK, the growth estimate is reported as -0.178.
LGIYLSA was tested, and the growth estimate was < -0.25.
In the case of RANVGNTFRNRGGCPYSLLI, the growth estimate is reported as < -0.25.
In the case of LPPPVFPVTFT, the growth estimate is reported as < -0.25.
In the case of PLFYPGRQSAR, the growth estimate is reported as < -0.25.
RWVSRSYGRDDYMASGLHDG showed a growth estimate of -0.246.
In the case of RCYGKYAELTANESLRSLTQ, the growth estimate is reported as < -0.25.
RLHL was tested, and the growth estimate was < -0.25.
With IWESSRHRIKITQAPSNECG the growth estimate was < -0.25.
RVRSRV was tested, and the growth estimate was < -0.25.
With YIIVEAAIALGSHGSIGVEI the growth estimate was < -0.25.
With ANLFHVCSLC the growth estimate was < -0.25.
For GNQGVCLCFVRRGSYVFPRS, the growth estimate was < -0.25.
RAERNAGKVWELCPCRSEDT was tested, and the growth estimate was < -0.25.
FLLLARAVSSAEPSGETQQR was tested, and the growth estimate was < -0.25.
For GFVRICMSIQHLGTD, the growth estimate was -0.246.
HEERWVRHGLREKVLA was tested, and the growth estimate was < -0.25.
With SLLCC the growth estimate was < -0.25.
In the case of VEDGRVMPIKPAGRQSPERS, the growth estimate is reported as < -0.25.
In the case of YAWTAYEEQDRH, the growth estimate is reported as < -0.25.
For TRLDTGSPHDNRKT, the growth estimate was < -0.25.
With TGSEMDNFVDASISRARWRV the growth estimate was < -0.25.
GSPNPAIRATNNLANGSHSR was tested, and the growth estimate was < -0.25.
For KEHGYRQRS, the growth estimate was < -0.25.
For LSNSEEGHHPER, the growth estimate was < -0.25.
ITWGAQAGYEAAVRLVWSGH was tested, and the growth estimate was < -0.25.
With NVLCGCRPGWYCRASEGSGW the growth estimate was < -0.25.
In the case of CTPAACHICAS, the growth estimate is reported as -0.243.
In the case of TMTALHNGTCMWCPDGMTVT, the growth estimate is reported as < -0.25.
In the case of LQLRIIITGLGVTGTP, the growth estimate is reported as < -0.25.
With GHSCHFCRTWCMTISWFIMM the growth estimate was < -0.25.
FTLFDRTGIPSEKTPIVLPD was tested, and the growth estimate was < -0.25.
STPAEANCPEKSCGRARSTS was tested, and the growth estimate was -0.246.
In the case of AACHENSNLNELLHRERWRA, the growth estimate is reported as < -0.25.
With QLKQQCMLMAHRVVWRRALR the growth estimate was < -0.25.
With LGPPKRPA the growth estimate was < -0.25.
In the case of RECSSTNYTLEATSKSFLPY, the growth estimate is reported as < -0.25.
In the case of CHFTAESGQD, the growth estimate is reported as < -0.25.
In the case of IGPPLGNIGPRVLRSRSYRP, the growth estimate is reported as < -0.25.
For GIVKGA, the growth estimate was < -0.25.
For FYLGKRGHLVGTERYIPFRA, the growth estimate was < -0.25.
WHWTEFRQ was tested, and the growth estimate was < -0.25.
YCCLSKLARIRSSWMDRGLR was tested, and the growth estimate was < -0.25.
SKSRCVIIGPTSLLMQTRAL was tested, and the growth estimate was < -0.25.
For RLGP, the growth estimate was < -0.25.
With GIGITWLEQPRNYSLGRVLT the growth estimate was < -0.25.
In the case of AVVGITPGGRMDFNIKSRTS, the growth estimate is reported as < -0.25.
For PCCSIL, the growth estimate was < -0.25.
In the case of GRWAVIPDYQP, the growth estimate is reported as < -0.25.
In the case of QSTNDS, the growth estimate is reported as < -0.25.
DECQRAVNTEGVLTVAGLII was tested, and the growth estimate was < -0.25.
RADALRLGALSCKRAGDSCV was tested, and the growth estimate was < -0.25.
For LASRQVTLYIFRDPRWNSSP, the growth estimate was < -0.25.
For GPPRSFGWYRWYKRNLGLMS, the growth estimate was < -0.25.
Work on LGLTPVTVRVATRSNNSQSH yielded a growth estimate of -0.245.
In the case of LQRRVAL, the growth estimate is reported as < -0.25.
In the case of GLINSCSNRCTRGGSRLWQG, the growth estimate is reported as < -0.25.
In the case of PKT, the growth estimate is reported as < -0.25.
FCPPGAARGRRALAEF was tested, and the growth estimate was < -0.25.
In the case of RTSG, the growth estimate is reported as < -0.25.
For WWTGVRGWCRM, the growth estimate was < -0.25.
With SAANSTNTSSVQ the growth estimate was < -0.25.
LIREEVIYACAPPGTLVSAN was tested, and the growth estimate was < -0.25.
In the case of EDRRTR, the growth estimate is reported as < -0.25.
For WCISRQRYNIEGTGVALTKD, the growth estimate was < -0.25.
In the case of VLAETEWAESESNLQKADEG, the growth estimate is reported as < -0.25.
PCTFAGLYGGIRKRSGAEVA was tested, and the growth estimate was < -0.25.
For NWDSRNWLSSPTRV, the growth estimate was < -0.25.
For GRLEIVTSRADRCIIAL, the growth estimate was < -0.25.
For LGIGRVEVTTYCSPRTSCSK, the growth estimate was < -0.25.
MNAIIQSGVGHERHQQALHM was tested, and the growth estimate was < -0.25.
For AIGCGGPVYPVVMGRH, the growth estimate was < -0.25.
For TPRGDVCRYRQYFALG, the growth estimate was < -0.25.
In the case of FLLTK, the growth estimate is reported as < -0.25.
With CLPGSLHTPWIILRGRVTFR the growth estimate was < -0.25.
In the case of SHPRCTVKSPEFLCRSHNRP, the growth estimate is reported as < -0.25.
In the case of TVFP, the growth estimate is reported as < -0.25.
In the case of SHTD, the growth estimate is reported as -0.241.
GGE was tested, and the growth estimate was < -0.25.
With KSWNWVVWS the growth estimate was < -0.25.
KQKWALYACRWAQALSVCTH was tested, and the growth estimate was < -0.25.
With FCGPS the growth estimate was < -0.25.
With GWRRRTDCCITCTCVERRLV the growth estimate was < -0.25.
With CDSGDTRDSL the growth estimate was < -0.25.
In the case of FHRVVSGGLFEHRS, the growth estimate is reported as < -0.25.
In the case of SEGYRR, the growth estimate is reported as < -0.25.
AISC was tested, and the growth estimate was < -0.25.
With RRGRLSRSSVEPLA the growth estimate was < -0.25.
With GGDARDPTVSFLIRCIPSSI the growth estimate was < -0.25.
VRLVFGALGKRCHNNLTRYK was tested, and the growth estimate was < -0.25.
In the case of RCKV, the growth estimate is reported as < -0.25.
PHSVTGPNICGSPSQRGLSV was tested, and the growth estimate was < -0.25.
In the case of ISGSNNLRIVTKFFRQLVRS, the growth estimate is reported as < -0.25.
MSGENKRVLV was tested, and the growth estimate was < -0.25.
In the case of GVARVEFRPELFLSFLE, the growth estimate is reported as < -0.25.
With TTARSACAGT the growth estimate was < -0.25.
With LADLMNVKACAPGE the growth estimate was < -0.25.
RVVEYAHRRYLQQSSPMDIS was tested, and the growth estimate was < -0.25.
For PSECT, the growth estimate was < -0.25.
For GDFDY, the growth estimate was < -0.25.
For NNASLHT, the growth estimate was < -0.25.
With FAPRTGWGTALKVVSTSVSA the growth estimate was < -0.25.
With RPITGTLN the growth estimate was < -0.25.
In the case of WPTYGSSGMEHISASRCNFR, the growth estimate is reported as < -0.25.
In the case of HFATSATWPNSKEG, the growth estimate is reported as < -0.25.
LGLIQVGTSLAKTLCG was tested, and the growth estimate was < -0.25.
For RGASDSVDNRAGSCSRNRRT, the growth estimate was < -0.25.
SGESHWLLAMTHH was tested, and the growth estimate was < -0.25.
For GQISQRRYRFSGRSLRHSDY, the growth estimate was < -0.25.
With IYQPACILCFDRNYTTGADL the growth estimate was < -0.25.
In the case of PPGRPTRRSLQVVRVIQV, the growth estimate is reported as < -0.25.
For GGIDSCPSIP, the growth estimate was < -0.25.
For PGRYVCQTMGS, the growth estimate was < -0.25.
TSSARKRTTSPPSWADSGSH was tested, and the growth estimate was < -0.25.
With TSYHRGFGLNIVCSAHVKAS the growth estimate was < -0.25.
For PKGKRLRNCSGYGSRESSVS, the growth estimate was < -0.25.
For FQINSMR, the growth estimate was < -0.25.
In the case of WLGVE, the growth estimate is reported as < -0.25.
GKEHLKHTGDFELRSSDRRH was tested, and the growth estimate was < -0.25.
